# According to the supplement of paper PMC10331698:
# ± gives the standard deviation of the averaged measurements. Most entries show no effect beyond the scatter of the controls.
# Legend:
# Assay in all cases: level (log10 ratio to DMSO vehicle control); higher = higher biomarker level / cell amount than vehicle control
# [1] = compound: C=C(C)C(=O)OCC(F)(F)C(F)(F)C(F)(F)F [2,2,3,3,4,4,4-Heptafluorobutyl methacrylate]; settings: 2200 nM; in DMSO
# Experimental: (§1)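 BioMAP Diversity Plus panel of 12 human primary cell co-culture systems (3C, 4H, LPS, SAg, BT, BF4T, BE3C, CASM3C, HDF3CGF, KF3CT, MyoF, Mphg). Compounds were added 1 h before stimulation and left for 24 h (MyoF 48 h; BT 72 h for soluble read-outs or 6 d for IgG). Biomarkers were read by ELISA, cytotoxicity by SRB, PBMC viability and proliferation by Alamar Blue. Each well value was divided by the mean of 8 DMSO control wells on the same plate and log10 transformed; duplicate blinded samples were tested at 4 concentrations.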
# [2] = compound: OCC(F)(F)C(F)(F)C(F)(F)C(F)(F)C(F)(F)C(F)(F)C(F)(F)C(F)(F)C(F)(F)C(F)(F)C(F)(F)F [11:1 Fluorotelomer alcohol]; settings: in DMSO
# Experimental: as §1
# [3] = compound: O=C(O)C=CC(F)(C(F)(F)F)C(F)(F)F [3-(Perfluoroisopropyl)-2-propenoic acid]; settings: in DMSO
# Experimental: as §1
# [4] = compound: C=CC(=O)OCC(F)(F)C(F)(F)C(F)(F)C(F)(F)COC(=O)C=C [1H,1H,6H,6H-Perfluorohexane-1,6-diol diacrylate]; settings: 2200 nM; in DMSO
# Experimental: as §1
# [5] = compound: O=C(O)C(F)(F)OC(F)(F)C(F)(F)OC(F)(F)C(F)(F)C(F)(F)C(F)(F)F [Perfluoro-3,6-dioxadecanoic acid]; settings: 2200 nM; in DMSO
# Experimental: as §1
# [6] = compound: O=C(O)C(F)(F)C(F)(F)C(F)(F)C(F)(F)C(F)(F)C(F)(F)C(F)(F)C(F)F [9-H-Perfluorononanoic acid]; settings: 2200 nM; in DMSO
# Experimental: as §1
# [7] = compound: FC(F)C(F)(F)COCC1CO1 [((2,2,3,3-Tetrafluoropropoxy)methyl)oxirane]; settings: 2200 nM; in DMSO
# Experimental: as §1
# Perfluoropropanoic acid = compound: O=C(O)C(F)(F)C(F)(F)F [Perfluoropropanoic acid]; settings: 2200 nM; in DMSO
# Experimental: as §1
# [8] = compound: O=C(O)C(F)(F)OC(F)(F)C(F)(F)OC(F)(F)C(=O)O [Perfluoro-3,6-dioxaoctane-1,8-dioic acid]; settings: 2200 nM; in DMSO
# Experimental: as §1
# [9] = compound: O=P(O)(O)CCC(F)(F)C(F)(F)C(F)(F)C(F)(F)C(F)(F)C(F)(F)C(F)(F)C(F)(F)F [((Perfluorooctyl)ethyl)phosphonic acid]; settings: 2200 nM; in DMSO
# Experimental: as §1
# Perfluorobutanoic acid = compound: O=C(O)C(F)(F)C(F)(F)C(F)(F)F [Perfluorobutanoic acid]; settings: 2200 nM; in DMSO
# Experimental: as §1
# [10] = compound: OCCC(F)(F)C(F)(F)C(F)(F)C(F)(F)C(F)(F)C(F)(F)C(F)(F)C(F)(F)F [8:2 Fluorotelomer alcohol]; settings: 2200 nM; in DMSO
# Experimental: as §1
# Perfluoroundecanoic acid = compound: O=C(O)C(F)(F)C(F)(F)C(F)(F)C(F)(F)C(F)(F)C(F)(F)C(F)(F)C(F)(F)C(F)(F)C(F)(F)F [Perfluoroundecanoic acid]; settings: in DMSO
# Experimental: as §1
# Perfluorooctanamide = compound: NC(=O)C(F)(F)C(F)(F)C(F)(F)C(F)(F)C(F)(F)C(F)(F)C(F)(F)F [Perfluorooctanamide]; settings: 2200 nM; in DMSO
# Experimental: as §1
# [11] = compound: FC(F)(F)C(F)(F)C(F)(F)C(F)(F)C(F)(F)C(F)(F)C(F)(F)I [1-Iodopentadecafluoroheptane]; settings: in DMSO
# Experimental: as §1
# [12] = compound: FC(F)(F)C(F)(F)C(F)(F)C(F)(F)C(F)(F)C(F)(F)C(F)(F)CCI [1-Iodo-1H,1H,2H,2H-perfluorononane]; settings: in DMSO
# Experimental: as §1
# [13] = compound: O=C(O)C(F)(F)C(F)(F)OC(F)(F)F [Perfluoro-3-methoxypropanoic acid]; settings: 2200 nM; in DMSO
# Experimental: as §1
# [14] = compound: O=S(=O)(Cl)C(F)(F)C(F)(F)C(F)(F)C(F)(F)C(F)(F)C(F)(F)C(F)(F)C(F)(F)F [Perfluoro-1-octanesulfonyl chloride]; settings: 2200 nM; in DMSO
# Experimental: as §1
Test System,level (log10) [1],level (log10) ([2]; 370 nM),level (log10) ([2]; 1100 nM),level (log10) ([2]; 3300 nM),level (log10) ([2]; 10000 nM),level (log10) ([3]; 2200 nM),level (log10) ([3]; 6700 nM),level (log10) ([3]; 20000 nM),level (log10) ([3]; 60000 nM),level (log10) [4],level (log10) [5],level (log10) [6],level (log10) [7],level (log10) (Perfluoropropanoic acid),level (log10) [8],level (log10) [9],level (log10) (Perfluorobutanoic acid),level (log10) [10],level (log10) (Perfluoroundecanoic acid; 740 nM),level (log10) (Perfluoroundecanoic acid; 2200 nM),level (log10) (Perfluorooctanamide),level (log10) ([11]; 740 nM),level (log10) ([11]; 2200 nM),level (log10) ([11]; 6700 nM),level (log10) ([11]; 20000 nM),level (log10) ([12]; 740 nM),level (log10) ([12]; 2200 nM),level (log10) ([12]; 6700 nM),level (log10) ([12]; 20000 nM),level (log10) [13],level (log10) [14]
MyoF:MMP-1,0.045 ± 0.033,0 ± 0.071,-0.027 ± 0.0042,-0.0445 ± 0.0021,0.004 ± 0.052,0.0195 ± 0.066,-0.0205 ± 0.021,-0.031 ± 0.0014,0.006 ± 0.068,0.017 ± 0.034,0.002 ± 0.027,-0.0265 ± 0.0035,0.0035 ± 0.026,-0.0155 ± 0.0035,0.022 ± 0.052,0.0095 ± 0.066,0.034 ± 0.033,0.0125 ± 0.091,-0.007 ± 0.018,-0.066 ± 0.061,-0.013 ± 0.048,0.0105 ± 0.022,-0.0025 ± 0.0021,0.145 ± 0.045,0.547 ± 0.018,-0.015 ± 0.0099,-0.0135 ± 0.00071,-0.012 ± 0.013,-0.0145 ± 0.025,0.026 ± 0.085,-0.0015 ± 0.076
BE3C:CXCL11/I-TAC,0.018 ± 0.045,-0.002 ± 0.04,-0.0085 ± 0.018,-0.025 ± 0.024,-0.005 ± 0.013,-0.015 ± 0.0085,-0.0175 ± 0.0078,-0.009 ± 0.0057,0.005 ± 0.011,0.002 ± 0.0028,0.03 ± 0.0099,0 ± 0.0014,-0.009 ± 0.038,0.0225 ± 0.04,-0.013 ± 0.0057,-0.0165 ± 0.00071,-0.0005 ± 0.019,0.003 ± 0.014,0.01 ± 0.023,0.0165 ± 0.013,-0.0075 ± 0.0021,0.0045 ± 0.028,0.0055 ± 0.013,0.0005 ± 0.015,0.004 ± 0.013,-0.0025 ± 0.011,-0.0075 ± 0.00071,-0.004 ± 0.0057,-0.001 ± 0.0042,-0.001 ± 0.011,-0.0035 ± 0.005
HDF3CGF:CD106/VCAM-1,-0.029 ± 0.054,-0.0455 ± 0.069,-0.075 ± 0.011,-0.144 ± 0.013,-0.069 ± 0.075,-0.0695 ± 0.037,-0.0265 ± 0.015,-0.019 ± 0.02,-0.025 ± 0.035,-0.329 ± 0.029,-0.073 ± 0.061,-0.028 ± 0.0071,-0.0435 ± 0.019,-0.0175 ± 0.028,-0.0365 ± 0.0078,0.102 ± 0.014,0.0005 ± 0.019,-0.045 ± 0.048,-0.017 ± 0.017,-0.018 ± 0.0099,-0.011 ± 0.02,-0.0065 ± 0.023,-0.0125 ± 0.026,-0.0165 ± 0.021,-0.046 ± 0.041,-0.0365 ± 0.0092,-0.044 ± 0.011,-0.0925 ± 0.013,-0.115 ± 0.018,-0.015 ± 0.011,-0.014 ± 0.0014
